According to patent US11393988B2, “Metal complexes” (Merck Patent GmbH, priority 2014, dated 2022):

Columns and labels:
[1] = Solution-processed OLEDs from soluble functional materials; conditions: solution-processed OLED
[2] = Vacuum-processed OLEDs with the complexes as phosphorescent emitter (efficiency, voltage, colour, lifetime)
[3] = device Type 1, initial luminous density 1000 cd/m^2

CC1(C)CCC(C)(C)c2cc3c(-c4cc5oc6ccccc6c5c[c]4[Ir]([c]4ccccc4-c4ccccn4)[c]4ccccc4-c4ccccn4)nccc3cc21 [Ir523]
EQE (%) 1000 cd/m^2 ([1]; device Type 2, at 1000 cd/m^2): 19.1% | Voltage (V) 1000 cd/m^2 ([1]; device Type 2, at 1000 cd/m^2): 3.8 V | LT50 (h) 1000 cd/m^2 ([1]; device Type 2, initial luminous density 1000 cd/m^2): 160000 h | LT80 (h) 1000 cd/m^2 ([2]; orange-red, yellow and green OLEDs, time to 80% of initial luminous density 1000 cd/m^2): 22000 h | Voltage (V) 1000 cd/m^2 ([2]; vacuum-processed OLED, at 1000 cd/m^2): 3.0 V | EQE (%) 1000 cd/m^2 ([2]; vacuum-processed OLED, complex as emitter in EML (structure per Table 1), at 1000 cd/m^2): 18.0%

CC1(C)CCC(C)(C)c2cc3c4[n+](ccc3cc21)[Ir-3]12([c]3cc5c(cc3-4)oc3ccccc35)([c]3cc4c(cc3-c3c5cc6c(cc5cc[n+]31)C(C)(C)CCC6(C)C)oc1ccccc14)[c]1cc3c(cc1-c1c4cc5c(cc4cc[n+]12)C(C)(C)CCC5(C)C)oc1ccccc13 [Ir(LH31)3]
EQE (%) 1000 cd/m^2 ([1]; device Type 1, at 1000 cd/m^2): 19.5% | Voltage (V) 1000 cd/m^2 ([1]; device Type 1, at 1000 cd/m^2): 3.6 V

CC1(C)CCC(C)(C)c2cc3cc(-c4cc5c(c[c]4[Ir]([c]4cc6c(cc4-c4cc7cc8c(cc7cn4)C(C)(C)CCC8(C)C)C(C)(C)CC6(C)C)[c]4cc6c(cc4-c4cc7cc8c(cc7cn4)C(C)(C)CCC8(C)C)C(C)(C)CC6(C)C)C(C)(C)CC5(C)C)ncc3cc21 [Ir(LH34)3]
EQE (%) 1000 cd/m^2 ([1]; device Type 1, at 1000 cd/m^2): 19.9% | Voltage (V) 1000 cd/m^2 ([1]; device Type 1, at 1000 cd/m^2): 3.7 V

CC1(C)CCC(C)(C)c2cc(-c3cc4oc5ccccc5c4c[c]3[Ir]([c]3cc4c(cc3-c3cc5c(cn3)C(C)(C)CCC5(C)C)oc3ccccc34)[c]3cc4c(cc3-c3cc5c(cn3)C(C)(C)CCC5(C)C)oc3ccccc34)ncc21 [Ir(LH37)3]
EQE (%) 1000 cd/m^2 ([1]; device Type 1, at 1000 cd/m^2): 21.1% | Voltage (V) 1000 cd/m^2 ([1]; device Type 1, at 1000 cd/m^2): 4.6 V | LT50 (h) 1000 cd/m^2 [1, 3]: 190000 h

CC1(C)CCC(C)(C)c2cc(-c3ccc(-c4ccccc4)c[c]3[Ir]([c]3cc(-c4ccccc4)ccc3-c3cc4c(cn3)C(C)(C)CCC4(C)C)[c]3cc(-c4ccccc4)ccc3-c3cc4c(cn3)C(C)(C)CCC4(C)C)ncc21 [Ir(LH38)3]
EQE (%) 1000 cd/m^2 ([1]; device Type 1, at 1000 cd/m^2): 21.6% | Voltage (V) 1000 cd/m^2 ([1]; device Type 1, at 1000 cd/m^2): 4.6 V

CC1(C)CCC(C)(C)c2cc(-c3cc4c(c[c]3[Ir]([c]3cc5oc6ccccc6c5cc3-c3cc5c(cn3)C(C)(C)CCC5(C)C)[c]3cc5oc6ccccc6c5cc3-c3cc5c(cn3)C(C)(C)CCC5(C)C)oc3ccccc34)ncc21 [Ir(LH39)3]
EQE (%) 1000 cd/m^2 ([1]; device Type 1, at 1000 cd/m^2): 21.3% | Voltage (V) 1000 cd/m^2 ([1]; device Type 1, at 1000 cd/m^2): 4.6 V

CC1C(C)C(C)(C)c2c[c]([Ir]([c]3cc4c(cc3-c3cc(-c5ccccc5)ccn3)C(C)(C)C(C)C(C)C4(C)C)[c]3cc4c(cc3-c3cc(-c5ccccc5)ccn3)C(C)(C)C(C)C(C)C4(C)C)c(-c3cc(-c4ccccc4)ccn3)cc2C1(C)C (centres unmarked) [Ir(LH53)3]
EQE (%) 1000 cd/m^2 ([1]; device Type 1, at 1000 cd/m^2): 21.0% | Voltage (V) 1000 cd/m^2 ([1]; device Type 1, at 1000 cd/m^2): 4.3 V | LT50 (h) 1000 cd/m^2 [1, 3]: 140000 h

Cc1cc(-c2cc3c(c[c]2[Ir]([c]2cc4c(cc2-c2cc(C)c(-c5ccccc5)cn2)C(C)(C)C(C)C(C)C4(C)C)[c]2cc4c(cc2-c2cc(C)c(-c5ccccc5)cn2)C(C)(C)C(C)C(C)C4(C)C)C(C)(C)C(C)C(C)C3(C)C)ncc1-c1ccccc1 (centres unmarked) [Ir(LH54)3]
EQE (%) 1000 cd/m^2 ([1]; device Type 1, at 1000 cd/m^2): 21.6% | Voltage (V) 1000 cd/m^2 ([1]; device Type 1, at 1000 cd/m^2): 4.6 V | LT50 (h) 1000 cd/m^2 [1, 3]: 200000 h
